Hit rate of the full screen: of about 580,000 compounds, about 6,100 (1.1%) were called active. The inconclusive results got no clear call from the source; some entries with a clear call stand among them for comparison. Calls come from the whole dose curve; as a rule, active = well fitted inhibition curve with a large enough effect; inconclusive = small, poorly fitted or top-dose-only effect, or another doubt; inactive = no such curve, though single readings can be large or run the other way. Where the call is inconclusive, the potency comes from a doubtful curve fit.
biological target: Polyunsaturated fatty acid lipoxygenase ALOX12 (Homo sapiens) (UniProt P18054); assay: Primary qHTS assay for inhibitors of human arachidonate 12S-lipoxygenase (ALOX12): Round 2; details: purified 12hLO, xylenol orange hydroperoxide absorbance; series mostly up to 108 µM
Outline: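 Purified human 12hLO at 150 nM in 25 mM Hepes, 0.01% Triton X-100, pH 7.0, preincubated 15 min at room temperature with compound. Reaction started with 40 uM arachidonic acid, 30 min at room temperature. Hydroperoxide measured by Fe-xylenol orange, 573/405 nm absorbance ratio.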
Potency is the fitted concentration of half-maximal effect.

Amino acid sequences for entries named in this document (tags omitted). A change or cut given only in a name is not applied to a line headed by its entry.
UniProt P18054: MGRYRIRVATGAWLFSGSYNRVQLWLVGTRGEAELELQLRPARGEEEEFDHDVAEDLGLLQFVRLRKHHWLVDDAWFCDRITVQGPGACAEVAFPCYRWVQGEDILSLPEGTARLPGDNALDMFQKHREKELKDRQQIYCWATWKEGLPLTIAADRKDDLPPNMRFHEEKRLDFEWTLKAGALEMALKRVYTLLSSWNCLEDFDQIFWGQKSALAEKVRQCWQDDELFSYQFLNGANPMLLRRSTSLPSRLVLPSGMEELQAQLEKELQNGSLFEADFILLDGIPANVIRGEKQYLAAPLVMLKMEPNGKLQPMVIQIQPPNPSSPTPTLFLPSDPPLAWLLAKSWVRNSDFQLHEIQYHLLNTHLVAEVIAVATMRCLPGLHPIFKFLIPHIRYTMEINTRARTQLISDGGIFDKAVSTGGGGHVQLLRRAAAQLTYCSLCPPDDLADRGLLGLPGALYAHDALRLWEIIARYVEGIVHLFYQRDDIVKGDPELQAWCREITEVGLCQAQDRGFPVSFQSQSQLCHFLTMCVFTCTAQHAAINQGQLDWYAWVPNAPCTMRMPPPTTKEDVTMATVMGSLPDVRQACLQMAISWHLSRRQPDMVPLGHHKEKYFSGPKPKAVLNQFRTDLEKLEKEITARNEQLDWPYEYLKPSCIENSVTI

| SMILES | Potency |
| --- | --- |
| CC(C)CNC(=O)c1cccc(NC(=O)c2ccc(NC(=O)c3ccco3)cc2)c1 | inconclusive: 50.1 µM [inhibitor, partial curve, poor fit] |
| CS(=O)(=O)N1CCCC(C(=O)N2CCN(c3ccccc3F)CC2)CCNC(=O)CC1 (stereo not given) | inactive |
| Cc1ccc(OS(=O)(=O)c2ccccc2)c(/C=N/N=C2\NC(=O)C(C)S2)c1 (stereo not given) | inactive |
| COc1ccc(C(=O)NC(C)c2cccnc2)cc1S(=O)(=O)N(C)Cc1ccccc1 (stereo not given) | inactive |
| Cc1ccccc1/C=C/c1cccc[n+]1C | inconclusive: 35.5 µM [inhibitor, partial curve] |
| Cc1cc(NS(=O)(=O)c2ccc(NC(=O)/C=C/c3ccco3)cc2)nc(C)n1 | inconclusive: 44.7 µM [inhibitor, partial curve, poor fit] |
| O=C(Cn1sc2ccccc2c1=O)Nc1ccccc1 | active: 0.891 µM |
| CCc1cccc(C)c1NC(=O)Cn1ccn(Cc2ccc(Cl)cc2)c(=O)c1=O | inconclusive: 112 µM [inhibitor, partial curve, poor fit] |
| C=Cn1cc[n+](CC(=O)c2cc(C(C)(C)C)c(O)c(C(C)(C)C)c2)c1 | inactive |
| CCOc1nc(NC(C)C)nc(NC(C)C)n1 | inactive |
| CC(C)C[C@H]1CN(CCCC[C@H]2CNC(=O)C(=O)N2CCc2ccc(O)cc2)C(=O)C(=O)N1CCc1ccc(O)cc1 | inconclusive: 56.2 µM [inhibitor, partial curve, poor fit] |
| Cn1c2ccccc2c2c3c(c4c5ccccc5n(CCC#N)c4c21)CNC3=O | inactive |
| CCOC(=O)N1C2=NC(C(=O)OC)=C(C(=O)OC)[C@@H]3N(C)c4ccc(OC)cc4[C@]23C[C@H]1C(=O)OC | inconclusive: 141 µM [inhibitor, partial curve, poor fit] |
| Nc1ccn([C@@H]2O[C@H](C(=O)NCCCN3CCCC3=O)[C@@H](O)[C@H]2O)c(=O)n1 | inconclusive: 100 µM [inhibitor, single point] |
| O=C(/C=C/c1ccc([N+](=O)[O-])cc1)Nc1cccc(S(=O)(=O)NC2=NCCCCC2)c1 | inactive |
| CCOC(=O)C(=C(C#N)C#N)C1=C(N2CCOCC2)/C(=C/c2ccccc2)CC1 | inconclusive: 2.51 µM [inhibitor, full curve, poor fit] |
| CCOc1cc2c(cc1NC(=O)CCC(=O)c1ccc(C)cc1)OC(C)C2 (stereo not given) | active: 4.47 µM |
| COCCCNC(=O)C[C@@H]1C[C@@]2(C(=O)OC)CCCCC=C2N(Cc2ccco2)C1=O | inconclusive: 44.7 µM [inhibitor, partial curve, poor fit] |
| Brc1ccccc1-c1nc(-c2ccccn2)no1 | active: 14.1 µM |
| Cn1sc(NC(=O)c2ccc(Cl)cc2)nc1=O | inconclusive: 14.1 µM [inhibitor, partial curve, poor fit] |
| COC(=O)CCNC(=O)c1ccc2c(c1)NC(=O)CS2 | inactive |
| O=C(Nc1nccs1)c1ncc(Cl)c(Cl)c1Cl | inactive |

| SMILES | Potency |
| --- | --- |
| Cc1cc(=O)oc2cc(NC(=O)Cc3ccc(Cl)cc3Cl)ccc12 | inconclusive: 50.1 µM [inhibitor, partial curve, poor fit] |
| Cn1nnnc1-c1cccc(NC(=O)Cc2ccc(Cl)cc2Cl)c1 | inconclusive: 141 µM [inhibitor, single point] |
| COc1ccc(-c2noc(COc3ccc(Br)cc3C)n2)cc1OC | inconclusive: 112 µM [inhibitor, partial curve, poor fit] |
| Cc1ccc(-c2nc3ccc(Br)cn3c2Cc2ccsc2)cc1 | active: 3.16 µM |
| O=C(Cn1cccc1-c1nc(-c2ccc3c(c2)OCO3)no1)N1CCCc2ccccc21 | inconclusive: 7.94 µM [inhibitor, full curve, poor fit] |
| c1coc(-c2nc3nccc(-c4cc5ccccc5o4)n3n2)c1 | inconclusive: 28.2 µM [inhibitor, partial curve] |
| COc1cc(-c2nc(-c3ccc(Br)cc3)no2)cc(OC)c1OC | inconclusive: 39.8 µM [inhibitor, single point] |
| CNC(=S)Nc1cccc(S(=O)(=O)NC2=NCCC2)c1 | inconclusive: 70.8 µM [inhibitor, partial curve, poor fit] |
| Cn1c(Oc2ccccc2NCc2cc(Br)ccc2O)cc(=O)n(C)c1=O | inactive |
| CCCS(=O)(=O)N1CC(C(=O)NCCc2ccncc2)C2(CCOCC2)C1 (stereo not given) | inconclusive: 14.1 µM [inhibitor, partial curve, poor fit] |
| O=C(Oc1ccc[nH]c1=O)c1cccc(Cl)c1 | inconclusive: 15.8 µM [inhibitor, partial curve, poor fit] |
| CCNc1nc(-c2cc(C)n(-c3cc(C)on3)c2C)cs1 | inconclusive: 31.6 µM [inhibitor, partial curve] |
| CC(C)(C)c1ccc(-n2ncc3c2CCCC3NC(=O)c2ccncc2)cc1 (stereo not given) | inactive |
| Cc1nc(N)[nH]c(=O)c1Oc1cccc(C(F)(F)F)c1 | inconclusive: 31.6 µM [inhibitor, partial curve, poor fit] |
| O=C(/C=C/c1cccc(O)c1)c1cccs1 | inconclusive: 89.1 µM [inhibitor, single point] |
| O=C(c1[nH]c(C(F)(F)F)nc1-c1ccccc1)N1CCCN(Cc2ccc(F)cc2)CC1 | inconclusive: 50.1 µM [inhibitor, partial curve, poor fit] |
| O=C(CCNS(=O)(=O)c1ccc(OC(F)(F)F)cc1)N1CCN(S(=O)(=O)c2cccc(F)c2)CC1 | inconclusive: 11.2 µM [inhibitor, full curve, poor fit] |
| COc1ccc(NC(=O)ON=C2c3ccccc3-c3ccccc32)cc1 | inactive |
| CC(C)CCC(CCNCc1ccccn1)c1ccc2c(c1)OCO2 (stereo not given) | inconclusive: 2.51 µM [inhibitor, full curve, poor fit] |
| COc1cc(Br)c(C(C)NC(=O)c2cccc(Br)c2)cc1OC (stereo not given) | inconclusive: 126 µM [inhibitor, partial curve, poor fit] |
| CCCN1CCN(C(=O)c2oc3ccccc3c2NC(=O)COc2ccc(OC)cc2)CC1 | inactive |
| COC(=O)CCCC1=CC2=CC(=O)C(C)(OC(=O)c3cccs3)C(=O)C2=CN1C1CC1 (stereo not given) | inconclusive: 3.98 µM [inhibitor, single point] |

| SMILES | Potency |
| --- | --- |
| CC(=O)Nc1sc(NC(=O)c2ccccc2)nc1-c1cccs1 | inactive |
| O=C(NCC1COc2ccccc2O1)c1cc(S(=O)(=O)N2CCOCC2)c(Cl)cc1Cl (stereo not given) | inconclusive: 44.7 µM [inhibitor, partial curve, poor fit] |
| O[C@@H]1CC(CNCc2ccccn2)(COc2cccnc2)C[C@@H]1O (stereo not given in full) | inactive |
| C=CCc1cccc2cc(C(=O)N(CC)CC)c(=O)oc12 | inconclusive: 5.62 µM [inhibitor, partial curve, poor fit] |
| CC(C)(C)Sc1ccc2nn(CC(=O)NCc3ccccc3Cl)c(=O)n2n1 | inconclusive: 126 µM [inhibitor, single point] |
| O=c1c2cn[nH]c2[nH]c(=S)n1-c1ccccc1F | inconclusive: 15.8 µM [inhibitor, full curve, poor fit] |
| CC(Oc1ccc(Cl)cc1C(N)=O)C(=O)N1CCc2ccccc21 (stereo not given) | inactive |
| CCOc1ccccc1C(=O)NCC(=O)OCC(=O)NCCc1ccc(S(N)(=O)=O)cc1 | inconclusive: 70.8 µM [inhibitor, partial curve, poor fit] |
| CCOC(=O)NC(=O)COC(=O)[C@H](C)NC(=O)c1ccccc1 | inconclusive: 2 µM [inhibitor, full curve, poor fit] |
| Cc1ccc(NC(=O)Cn2c(=O)n(Cc3ccc4c(c3)OCO4)c(=O)c3ccccc32)c(C)c1 | inconclusive: 4.47 µM [inhibitor, full curve, poor fit] |
| CN1CCC(NCC2(COc3ccc(C(F)(F)F)cn3)C[C@@H](O)[C@@H](O)C2)CC1 (stereo not given in full) | inconclusive: 10 µM [inhibitor, partial curve, poor fit] |
| CCC(CO)Nc1nc2c(c(=O)n(Cc3ccc(Cl)cc3Cl)c(=O)n2C)n1C (stereo not given) | inconclusive: 28.2 µM [inhibitor, partial curve, poor fit] |
| CCN1CCN(C(=O)c2ccc3c(=O)n(Cc4ccccc4OC)c(=S)[nH]c3c2)CC1 | inconclusive: 100 µM [inhibitor, partial curve, poor fit] |
| COc1ccc(NC(=O)CNCc2ccc(Cl)cc2)cc1S(=O)(=O)N1CCOCC1 | inconclusive: 2.24 µM [inhibitor, full curve, poor fit] |
| CC(=O)N1CCN(c2cc(-c3noc([C@@H]4CCCN4Cc4ccc(N(C)C)cc4)n3)ccn2)CC1 | inconclusive: 79.4 µM [inhibitor, single point] |
| Cc1ccc(C)c(N2CCN(S(=O)(=O)c3cnc(N)nc3)CC2)c1 | inconclusive: 56.2 µM [inhibitor, partial curve, poor fit] |
| O=C(/C=C/c1ccc(F)cc1)NC(=S)Nc1ccccc1O | inactive |
| O=[N+]([O-])c1cccc(C(=S)N2CCN(c3ccc(F)cc3)CC2)c1 | inactive |
| COc1ccc(C(=O)Nc2ccc3sc(NC(=O)C(C)C)nc3c2)cc1OC | inconclusive: 50.1 µM [inhibitor, partial curve, poor fit] |
| Cc1ccc2nc(N3CCN(c4cccc(C)c4C)CC3)c3nncn3c2c1 | inconclusive: 112 µM [inhibitor, partial curve, poor fit] |
| COc1cccc(CNc2ncnc3ccc(-c4c(C)noc4C)cc23)c1 | inactive |

Two successive records from above, for reference:

| SMILES | Potency |
| --- | --- |
| O=c1c2cn[nH]c2[nH]c(=S)n1-c1ccccc1F | inconclusive: 15.8 µM [inhibitor, full curve, poor fit] |
| CC(Oc1ccc(Cl)cc1C(N)=O)C(=O)N1CCc2ccccc21 (stereo not given) | inactive |

Reference: PubChem BioAssay AID1671190 (National Center for Advancing Translational Sciences (NCATS), 2021)
